The nature of series [1]: general procedure: Fmoc solid-phase peptide synthesis; Rink Amide MBHA resin (100-200 mesh, 0.57 or […]); pre-loaded Wang resin for C-terminal acids; Rink-amide AM res; HBTU/DIEA; PyAOP/DIEA for some couplings; Oxyma/DIC. The settings on record: oxidative folding step, counterion exchange to acetate.
Series [2] in a line: general procedure: Fmoc solid-phase peptide synthesis; Rink Amide MBHA; HBTU/DIEA; PyAOP/DIEA for some couplings; Oxyma/DIC. Particulars: whole synthesis, analytical RP-HPLC, acetate.

Regarding “MeCO-k(PEG2PEG2SP6gEC180H)-Pen*-N-T-7MeW-K(Ac)-Pen*-AEF-2Nal-THP—K(Ac)-N-3Pva-Sar-CONH2”, the oxidative folding yield in series [1] (TFA salt) is 35%.
The same measure, in the same setting: in the case of “MeCO-Pen*-N-T-7MeW-K(Ac)-Pen*-AEF-2Nal-THP-K(PEG2PEG2gEC180H)-N-3Pva-Sar-CONH2” it was 24%.
In the case of “MeCO-r-Pen*-N-T-7MeW-K(Ac)-Pen*-AEF-2Nal-THP-E-N-3Pya-Sar-K(PEG2PEG2gEC18OH)-CONH2”, the oxidative folding yield in series [1] (from Intermediate 2-1, TFA salt) is on record as 5% yield.
Regarding “Ac-[Pen]*-N-T-[W(7-Me)]-[Lys(Ac)]-[Pen]*-Phe[4-(2-aminoethoxy)]-[2-Nal]-[THP]-E-N-[3-Pal]-Sarc-NH2 (*Pen-Pen form disulfide bond)”, the “final HPLC purity” value in series [2] is recorded as greater than 95%.
For the substance “MeCO-k(PEG2PEG22EC160H)-Pen*-N-T-7MeW-K(Ac)-Pen*-AEF-2Nal-THP-K(gEC16)-N-3Pva-Sar-CONH2”, in series [1] (TFA salt), the oxidative folding yield amounted to 13%.
The same measure, in the same setting: in the case of “MeCO-k(PEG2PEG22EmXOH)-Pen*-N-T-7MeW-K(Ac)-Pen*-AEF-2Nal-THP-K(PEG2PEG2gEmXOH)-N-3Pva-Sar-CONH2” it was 13%; in that of “MeCO-r-Pen*-N-T-7MeW-K(Ac)-Pen*-AEF(PEG2PEG2gEC180H)-2Nal-THP—K(Ac)-N-3Pva-Sar-CONH2”, 10%.
On the same count and under the same terms, the result for “HOC18gEPEG2PEG2-r-Pen*-N-T-7MeW-K(Ac)-Pen*-AEF-2Nal-THP—K(Ac)-N-3Pva-Sar-CONH2” reads 22%; that for “MeCO-k(PEG2PEG2gE(c)C180H)-Pen*-N-T-7MeW-K(Ac)-Pen*-AEF-2Nal-THP—K(Ac)-N-3Pva-Sar-CONH2”, 20% yield.
On to “MeCO-k(PEG2PEG2gEC180H)-Pen*-N-T-7MeW-K(Ac)-Pen*-AEF-2Nal-THP-K(Ac)-N-3Pva-N(4AmBenzyl)Gly-CONH2”, for which, in series [1] (TFA salt), the oxidative folding yield is reported as 26.8%.
For “MeCO-r-Pen*-N-T-7MeW-K(Ac)-Pen*-AEF-2Nal-THP-E-N-3Pya-NMeK(PEG2PEG2gEC180H)-CONH2”, the oxidative folding yield in series [1] (TFA salt) is 11%.
On the same count and under the same terms, the result for “MeCO-k(PEG2PEG2gEC180H)-Pen*-N-T-7MeW-K(Ac)-Pen*-AEF-2Nal-THP-K(Ac)-N-3Pva-Sar-CONH2” reads 28%; that for “MeCO-r-Pen*-N-T-7MeW-K(Ac)-Pen*-AEF-2Nal-THP—K(Ac)-N— 3Pva-N(PEG2PEG2gEC180H)Glv-CONH2”, 19.6%; that for “HOC18gEPEG2PEG2-r-Pen*-N-T-7MeW-K(Ac)-Pen*-AEF-2Nal-THP-K(PEG2PEG2gEC180H)-N-3Pya-Sar-CONH2”, 11.3%.
Still for that read-out and setting: the result for “MeCO-Pen*-N-T-7MeW-K(Ac)-Pen*-AEF-2Nal-THP—K(Ac)-N— 3Pva-Sar-PEG2-PEG2-eK(C160H)-COOH” reads 7%.

The values above are taken from patent US12478617B2 (JANSSEN BIOTECH, INC., priority 2021, dated 2025).
